The target of the test is VelB (yeast two-hybrid fusion, full length) (Aspergillus nidulans) (UniProt C8VTS4). Put plainly: two-hybrid; directed yeast two-hybrid based on the LexA DNA binding domain (bait pTLexA, prey pGAD424) in S. cerevisiae L40; histidine growth reporter and lacZ X-gal colorimetric reporter.

By UniProt entry, the sequences of proteins in these tests, tags left out.
UniProt C8VTS4: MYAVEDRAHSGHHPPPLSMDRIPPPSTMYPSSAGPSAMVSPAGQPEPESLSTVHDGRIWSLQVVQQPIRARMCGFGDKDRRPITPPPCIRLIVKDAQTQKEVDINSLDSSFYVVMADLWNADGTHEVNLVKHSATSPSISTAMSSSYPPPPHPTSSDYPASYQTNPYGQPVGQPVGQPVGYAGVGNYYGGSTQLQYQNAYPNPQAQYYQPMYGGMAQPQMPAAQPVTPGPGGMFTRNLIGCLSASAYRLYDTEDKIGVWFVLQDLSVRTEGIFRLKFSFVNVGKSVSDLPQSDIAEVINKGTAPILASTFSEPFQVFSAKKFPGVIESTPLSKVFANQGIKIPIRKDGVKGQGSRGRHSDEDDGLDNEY

These are yes or no findings as the source states them, for the method shown. Some binding calls cover weakened binding; strength is not graded here. Tags and fused reporters may be left off the sequences shown.

B1: VeA N terminus (1-235 aa) (yeast two-hybrid fusion) (domain or fragment, UniProt C8VTV4 1-235)
chain: MATLAAPPPPLGESGNSNSVSRITREGKKITYKLNIMQQPKRARACGQGSKSHTDRRPVDPPPVIELNIFESDPHDDSNKTDITFVYNANFFLFATLEPERPIATGKLMTNQGSPVLTGVPVAGVAYLDKPNRAGYFIFPDLSVRNEGSYRFSFHLFEQIKDPKDATEGTQPMPSPVPGKLSSPQEFLEFRLEVISNPFIVYSAKKFPGLTTSTPISRMIAEQGCRVRIRRDVRM
On to B1, for which the binding entry is “binds”.

B2: velvet domain of VeA (29-235) (yeast two-hybrid fusion) (domain or fragment, UniProt C8VTV4 29-235)
chain: KITYKLNIMQQPKRARACGQGSKSHTDRRPVDPPPVIELNIFESDPHDDSNKTDITFVYNANFFLFATLEPERPIATGKLMTNQGSPVLTGVPVAGVAYLDKPNRAGYFIFPDLSVRNEGSYRFSFHLFEQIKDPKDATEGTQPMPSPVPGKLSSPQEFLEFRLEVISNPFIVYSAKKFPGLTTSTPISRMIAEQGCRVRIRRDVRM
For B2, the binding entry is “no binding”.

The record behind these values is paper PMC3547832, “Secondary Metabolism and Development Is Mediated by LlmF Control of VeA Subcellular Localization in Aspergillus nidulans” (PLoS Genetics, 2013).
